In the assay the target is FLAG-PININ-Mut (RSB domain deleted) (UniProt Q9H307). The experiment in a line: co-IP; HeLa cells transfected with FLAG-tagged PININ, 48 h; lysis in PXL buffer, RNase A and Turbo DNase 10 min 37 °C; anti-FLAG beads 2 h; washes with 150 mM NaCl, 1% NP-40; western blot. On the technique in general: In western blotting, separated proteins are transferred to a membrane and probed.

Amino acid sequences for entries named in this document (tags omitted). A change or cut given only in a name is not applied to a line headed by its entry.
UniProt Q9H307: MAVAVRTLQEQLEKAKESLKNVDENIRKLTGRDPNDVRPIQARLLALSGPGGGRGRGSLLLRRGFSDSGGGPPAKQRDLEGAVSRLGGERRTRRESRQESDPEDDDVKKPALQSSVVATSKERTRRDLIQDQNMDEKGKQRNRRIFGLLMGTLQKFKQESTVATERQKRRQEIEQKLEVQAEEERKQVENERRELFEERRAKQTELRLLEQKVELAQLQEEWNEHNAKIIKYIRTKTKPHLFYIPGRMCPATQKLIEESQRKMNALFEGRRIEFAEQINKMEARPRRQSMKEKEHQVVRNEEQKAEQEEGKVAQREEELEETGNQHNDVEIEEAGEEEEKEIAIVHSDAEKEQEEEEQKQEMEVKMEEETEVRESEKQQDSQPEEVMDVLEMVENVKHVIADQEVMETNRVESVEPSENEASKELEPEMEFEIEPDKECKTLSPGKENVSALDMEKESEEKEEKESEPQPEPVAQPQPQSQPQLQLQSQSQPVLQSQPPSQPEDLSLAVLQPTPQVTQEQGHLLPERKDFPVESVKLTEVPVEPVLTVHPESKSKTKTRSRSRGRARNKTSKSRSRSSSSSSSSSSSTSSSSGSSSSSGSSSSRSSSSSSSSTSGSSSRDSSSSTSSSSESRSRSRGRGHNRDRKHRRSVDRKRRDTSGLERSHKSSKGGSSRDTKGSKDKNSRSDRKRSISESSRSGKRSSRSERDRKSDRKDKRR

These are yes or no findings as the source states them, for the method shown. Binding seen in cells or lysates may run through a third protein.

B1: SAP18 (endogenous, HeLa) (protein, UniProt O00422 1-153)
chain: MAVESRVTQEEIKKEPEKPIDREKTCPLLLRVFTTNNGRHHRMDEFSRGNVPSSELQIYTWMDATLKELTSLVKEVYPEARKKGTHFNFAIVFTDVKRPGYRVKEIGSTMSGRKGTDDSMTLQSQKFQIGDYLDIAITPPNRAPPPSGRMRPY
In the case of B1, the binding result is on record as “no binding”.

Values taken from paper PMC6015020.
